Percent effect of library compounds

Chains of the proteins cited; added tags and fusions are not shown. Residues count along the entry.
UniProt Q8IDJ8, 1-583: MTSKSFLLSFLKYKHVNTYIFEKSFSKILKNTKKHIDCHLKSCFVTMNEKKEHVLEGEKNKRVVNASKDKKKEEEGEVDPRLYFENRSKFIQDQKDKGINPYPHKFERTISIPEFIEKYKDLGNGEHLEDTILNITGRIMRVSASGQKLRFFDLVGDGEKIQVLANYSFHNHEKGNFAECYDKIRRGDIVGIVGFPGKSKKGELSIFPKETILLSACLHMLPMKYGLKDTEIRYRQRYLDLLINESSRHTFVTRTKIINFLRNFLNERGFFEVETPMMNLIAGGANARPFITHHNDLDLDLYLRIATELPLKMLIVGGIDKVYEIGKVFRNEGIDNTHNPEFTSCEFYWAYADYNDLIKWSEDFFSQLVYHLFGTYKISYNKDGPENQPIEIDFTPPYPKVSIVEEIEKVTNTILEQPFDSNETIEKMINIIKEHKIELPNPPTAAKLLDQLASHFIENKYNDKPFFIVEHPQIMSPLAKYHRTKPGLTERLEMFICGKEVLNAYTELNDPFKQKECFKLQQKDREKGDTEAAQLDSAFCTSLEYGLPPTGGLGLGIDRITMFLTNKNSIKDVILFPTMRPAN
UniProt P9WFT3, whole entry: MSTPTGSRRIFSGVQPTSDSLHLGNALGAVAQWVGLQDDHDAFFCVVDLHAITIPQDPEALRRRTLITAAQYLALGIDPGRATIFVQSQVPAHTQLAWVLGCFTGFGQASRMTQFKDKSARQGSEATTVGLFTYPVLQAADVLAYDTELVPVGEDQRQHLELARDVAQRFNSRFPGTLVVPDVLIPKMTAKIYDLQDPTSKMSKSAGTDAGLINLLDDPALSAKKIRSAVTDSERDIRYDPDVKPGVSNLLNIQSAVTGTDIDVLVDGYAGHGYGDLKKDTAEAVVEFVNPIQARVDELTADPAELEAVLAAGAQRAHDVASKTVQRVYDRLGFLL
UniProt P9WPC5, whole entry: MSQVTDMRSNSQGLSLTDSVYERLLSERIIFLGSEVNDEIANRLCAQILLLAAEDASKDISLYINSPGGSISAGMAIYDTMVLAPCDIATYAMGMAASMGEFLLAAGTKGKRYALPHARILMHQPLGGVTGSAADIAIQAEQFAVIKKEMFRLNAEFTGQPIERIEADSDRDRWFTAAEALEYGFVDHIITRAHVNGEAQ
UniProt P9WPC3, whole entry partner: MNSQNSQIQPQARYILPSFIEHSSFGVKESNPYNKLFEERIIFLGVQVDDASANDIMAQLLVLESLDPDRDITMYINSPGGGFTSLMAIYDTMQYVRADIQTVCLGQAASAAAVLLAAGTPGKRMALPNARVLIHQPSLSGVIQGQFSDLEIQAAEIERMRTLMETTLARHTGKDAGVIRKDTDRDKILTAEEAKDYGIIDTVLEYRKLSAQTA
UniProt Q4DA54, 1-478: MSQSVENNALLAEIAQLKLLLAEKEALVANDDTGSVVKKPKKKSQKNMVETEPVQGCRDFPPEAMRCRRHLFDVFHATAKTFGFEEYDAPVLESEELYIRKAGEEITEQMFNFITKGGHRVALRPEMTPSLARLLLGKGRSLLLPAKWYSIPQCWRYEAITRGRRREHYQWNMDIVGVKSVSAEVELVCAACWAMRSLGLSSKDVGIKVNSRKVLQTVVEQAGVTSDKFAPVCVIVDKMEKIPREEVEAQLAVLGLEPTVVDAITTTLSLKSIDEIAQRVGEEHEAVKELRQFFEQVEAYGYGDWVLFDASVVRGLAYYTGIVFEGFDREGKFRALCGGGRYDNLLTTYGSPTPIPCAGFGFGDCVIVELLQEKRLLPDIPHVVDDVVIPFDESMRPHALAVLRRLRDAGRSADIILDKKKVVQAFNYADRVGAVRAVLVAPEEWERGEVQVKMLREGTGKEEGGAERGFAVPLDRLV

A: 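Enzyme assay of the cytosolic lysyl-tRNA synthetase in 384-well plates, read by luminescence. Target: Lysine-tRNA ligase, Plasmodium falciparum 3D7 (UniProt Q8IDJ8). Compounds at 30 µM. Direction is inferred from only a few compounds that gave an IC50; most scored high, so higher reads as stronger inhibition. Size under these conditions: about 69,000 compounds, about 49 of them at 50% or above in at least one test.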
B: 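Enzyme assay of tryptophanyl-tRNA synthetase; the read-out is not stated. Target: Tryptophan-tRNA ligase, Mycobacterium tuberculosis (UniProt P9WFT3). Compounds at 10 µM. Direction is not recorded; retested compounds ran higher, which suggests that high means inhibition. Of about 65,000 compounds tested this way, about 64 (0.098%) reached 50% or more in at least one test.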
C: 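ClpP1P2, Mycobacterium tuberculosis (UniProt P9WPC5 and UniProt P9WPC3). Protease assay of ClpP1P2, read by the AMC dye that it sets free. Compounds at 50 µM. Higher reads as stronger inhibition, judged from the few compounds that gave an IC50. Most other retested compounds had strongly negative values. About 69,000 compounds were tested under these conditions; 0.015% (about 10) showed 50% or more at least once.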
D: 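Histidine-tRNA ligase, Trypanosoma cruzi CL Brener (UniProt Q4DA54). Enzyme assay of histidyl-tRNA synthetase; the read-out is not stated. Compounds at 30 µM. Higher reads as stronger inhibition (inferred: compounds with an IC50 in retests scored well above the rest). About 69,000 compounds were tested under these conditions; 0.045% (about 31) showed 50% or more at least once.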

Results are given as percent effect.
The record does not define 0% and 100%; most values in the screen are far below 50% and negative numbers occur (in some assays of this library far below -100).
Compounds were drawn at random from those tested, without regard to their results.

Result for Cn1nccc1NCc1cc2cc(F)ccc2o1 was A: -2.837%; B: -0.5825%; C: 26.35%; D: 14.85%.
Result for O=C(CCC1CCCO1)N1CCc2nc(-c3cnccn3)nc(O)c2C1 (stereo not drawn) was A: 3.04%; C: -8.926%; D: 4.255%.
Result for COCCNC(=O)[C@@H]1CC[C@@H]2[C@@H](CCN2c2ncc(F)cn2)O1 was A: 2.81%; B: 0.09295%; C: -15.17%; D: 4.478%.
Result for CCc1nc(C2CCCN(c3nccc(C)n3)C2)no1 (stereo not drawn) was A: -1.176%; B: -3.96%; C: -3.04%; D: 2.062%.
Result for O=C(Cn1ccc(=O)[nH]c1=O)NCc1cccnc1OCC(F)(F)F was A: 2.623%; B: -2.106%; C: 4.313%; D: 9.091%.
Result for CCN(C(=O)c1cccc2c1OCO2)c1ccccc1 was A: 0.6822%; B: -5.068%; C: -2.298%; D: 3.784%.
Result for Cc1cccc2ncnc(N3CCOC(C)C3)c12 (stereo not drawn) was A: 2.041%; B: -3.349%; C: -2.742%; D: 2.463%.
Result for CN(C)C(=O)c1ccc(CNc2c(Cl)cccc2C#N)cc1 was A: 5.07%; B: -3.259%; C: 3.027%; D: 6.18%.
Result for Cc1ccc(N2CC[C@@H]3CN(Cc4c[nH]cn4)C[C@@H]3C2)nn1 was A: -0.7073%; B: 9.378%; C: -11.52%; D: 6.897%.
Result for O=C(c1cnc(O)c(Cl)c1)N1CCCC(c2nccs2)C1 (stereo not drawn) was A: 1.353%; B: 1.562%; C: -4.331%; D: 7.28%.
Result for C[C@@H]1CN(S(=O)(=O)N2CCCC2)CC[C@@]1(O)C1CCOCC1 was A: 5.081%; B: 0.9046%; C: -9.556%; D: -17.28%.
Result for CC(c1ccco1)N(C)Cc1cc2cc3c(cc2[nH]c1=O)OCO3 (stereo not drawn) was A: 8.225%; B: -2.093%; C: -73.35%; D: 7.2%.
Result for CSCc1cccc(S(=O)(=O)N2CCC(C)CC2)c1 was A: -1.178%; B: -0.402%; C: 0.2469%; D: 1.639%.
Result for CC(NCc1ccccc1O)c1ccc(-n2ccnc2)cc1 (stereo not drawn) was A: -0.1701%; B: 7.931%; C: -1.885%; D: 14.45%.
Result for O=C(c1ccccn1)N1CCOC2(COCCN(Cc3cc[nH]n3)C2)C1 (stereo not drawn) was A: 4.784%; B: -4.584%; C: -1.13%; D: 1.604%.
Result for Nc1cc(C(=O)NCC2CCN(CCc3ccccc3)C2)ccn1 (stereo not drawn) was A: 4.191%; B: 0.9029%; C: -23.63%; D: 3.922%.
Result for CC(SCCC(=O)NC(N)=O)c1c(F)cccc1F (stereo not drawn) was A: 4.915%; B: -1.65%; C: 9.57%; D: -1.961%.
Result for CN(Cc1ccco1)C(=O)Nc1ccc(=O)n(C)c1 was A: 23.01%; B: -2.094%; C: -3.172%; D: 10.98%.
Result for CCOc1c(Br)cc(CNCCc2nnc3n2CCCCC3)cc1OC was A: 3.544%; B: -4.741%; C: 9.907%; D: 8.046%.
Result for CCO[C@@H]1CN(Cc2scnc2C)[C@@H]2CCCO[C@@H]21 was A: 4.378%; B: -5.862%; C: 0.5381%; D: 11.96%.
Result for CC(=O)Nc1nc(C(=O)N2CCCC(n3ccnc3)C2)cs1 (stereo not drawn) was A: 3.926%; B: 1.657%; C: -10.53%; D: 3.788%.
Result for CCn1c(CN2CCN(CC(N)=O)CC2)nc2c(F)cccc21 was A: 7.507%; B: -0.1572%; C: 3.569%; D: 4.943%.
Result for CSCCC(CO)NC(=O)c1sc(-c2ccccc2Cl)nc1C (stereo not drawn) was A: 7.125%; B: -6.03%; C: -3.438%; D: -7.104%.
Result for Cc1n[nH]c(C)c1NC(=O)CN1CCc2c(nc(C3CC3)n2C)C1 was A: 4.973%; B: 0.2398%; C: 13.28%; D: 0.7634%.
Result for Cc1noc(C)c1S(=O)(=O)N1CCC(Oc2ccccn2)CC1 was A: -8.884%; B: 16.34%; C: -3.099%; D: -2.062%.
Result for Cc1nc(C)n(CC2CN(Cc3cccc4ccccc34)CCO2)n1 (stereo not drawn) was A: 0.635%; B: -2.77%; C: -63.9%; D: 5.78%.
Result for CCSC1(CNc2ncc(Br)cn2)CCOCC1 was A: 6.102%; B: 1.341%; C: 0.8494%; D: 7.65%.
Result for Cc1cc(NCCNc2cccnc2)nc(N)n1 was A: 2.719%; B: -2.449%; C: 4.742%; D: 1.786%.
Result for Cc1cc(C)n(-c2ccc(C(=O)NCC(CO)Cc3cccs3)cc2)n1 (stereo not drawn) was A: 5.076%; B: -11.75%; C: -5.835%; D: 7.463%.
Result for COc1ccc(C2=C(C)C(N3CCc4ccccc43)=NS2(=O)=O)cc1 was A: -2.473%; B: 5.623%; C: 6.722%; D: 2.174%.

2 of the entries, repeated:

- Nc1cc(C(=O)NCC2CCN(CCc3ccccc3)C2)ccn1 (stereo not drawn) | A: 4.191%; B: 0.9029%; C: -23.63%; D: 3.922%
- O=C(c1ccccn1)N1CCOC2(COCCN(Cc3cc[nH]n3)C2)C1 (stereo not drawn) | A: 4.784%; B: -4.584%; C: -1.13%; D: 1.604%

The values are deposited in ChEMBL (CHEMBL3988442, “University of Dundee, Small-Polar-MMV Screening Library” (2021)).